# Entries after “also recorded” stand apart in the source; their conditions may differ. For at least one compound, name, drawing or mass did not settle the structure.
# System: hearts from normoxic rabbits
# Test: Mechanism studies: inhibitors/blockers perfused alone, then with erythropoietin, before global ischemia
# Design: species or system New Zealand White rabbit
# Conditions: Paxilline 1 μM, 15 min alone then 15 min with erythropoietin 1.0 U/ml
# Description: Resistance to myocardial ischemia. Hearts from infant rabbits were perfused with bicarbonate buffer, and biventricular function was monitored continuously throughout each experiment as described in Rafiee et al., Circulation 106:239-45 (2002). For concentration response studies, hearts were then perfused with erythropoietin (0.5-10.0 U/ml) for 15 minutes prior to 30 minutes ischemia and 35 minutes reperfusion. For mechanism studies with protein kinase inhibitors, potassium channel blockers or nitric oxide synthase inhibitors, hearts were perfused with drugs for 15 minutes alone followed by 15 minutes in combination with erythropoietin prior to ischemia. Hearts perfused with protein kinase inhibitors or potassium channel blockers alone in the absence of erythropoietin for 30 minutes prior to ischemia served as untreated controls for these studies. Recovery of post-ischemic left and right ventricular developed pressure was expressed as a percentage of its pre-drug, pre-ischemic value.
# Hearts from normoxic rabbits were perfused with protein kinase inhibitors alone for 15 minutes and then combined with erythropoietin for a further 15 minute period prior to ischemia.
# Hearts were perfused with KATP channel blockers alone for 15 minutes and then in combination with erythropoietin (1.0 U/ml) for another 15-minute period prior to ischemia. […]
compound,measurement,setting,value
CC(C)(O)[C@H]1O[C@H]2CC[C@@]3(C)[C@@](O)(CC[C@H]4Cc5c([nH]c6ccccc56)[C@@]43C)C2=CC1=O [Paxilline],effect on the cardioprotective effect of erythropoietin,,completely blocked; also recorded: abolished
same,effect on the cardioprotective effect of erythropoietin,listed as paxilline,completely abrogated

# From patent US20040198663A1, “Method of treating cardiac ischemia by using erythropoietin” (priority 2003, published 2004)
